# Measured values taken from PubChem BioAssay AID540256 (National Center for Advancing Translational Sciences (NCATS), 2011).
# The whole screen tested about 300,000 compounds, of which about 3,700 (1.2%) were called active. This list was built around the results that the source calls inconclusive (neither active nor inactive); the mix of calls is not that of the screen. Calls follow the shape of the full dose curve; tested in HEK293 cells. Potencies beside an inconclusive call are fits to weak or partial responses and may not hold up.
# Test: qHTS for Inhibitors of binding or entry into cells for Lassa Virus; also: nearly all actives have a fitted effect of over 50% in size
# Settings: Lassa virus pseudotype entry inhibition, cell reporter; activity change, negative = inhibition: at 37.9 µM (top of the series) unless noted
# % is scaled to controls: 0 for no effect and ±100 for the full control effect; potency is read from the fitted curve at half-maximal effect.
SMILES,Potency,"activity change, negative = inhibition"
COc1ccc(NC(=O)CCNS(=O)(=O)c2ccccc2F)cc1S(N)(=O)=O,inactive,–
CCOC(=O)c1ccc(N2C(=O)c3n[nH]c(-c4cccs4)c3C2c2cccc(F)c2)cc1 (stereo unspecified),"inconclusive: 11.2 µM [inhibitor, partial curve, poor fit]",–
C=C(C)CCCN1C=C(C(=O)OCC)C(c2ccccc2)NC1=O (stereo unspecified),"inconclusive: 2.37 µM [inhibitor, partial curve, poor fit]",–
COC(=O)C1=CN(C(C)C)C=C(C(=O)OC)C1c1cc(Br)c(OC)c(OC)c1,active: 4.11 µM,–
CCc1ccc(NC(=O)CC2C(=O)OCCN2CC)cc1 (stereo unspecified),inactive,–
Cc1cc(C)c(C(=O)CC(=O)c2ccccc2Cl)c(O)c1,inactive,–
CCOc1ccc(S(=O)(=O)N2CCCCC2)cc1NC(=O)CN1C(=O)NC(C)(c2ccccc2)C1=O (stereo unspecified),"inconclusive: 20 µM [inhibitor, partial curve, poor fit]",–
Cc1[nH]c2ccccc2c1/C=C/c1cc[n+](C)cc1,"inconclusive: 25.1 µM [inhibitor, single point]",–
Cc1cc(C(=O)NC2CCCc3c2cnn3-c2cccc(C)c2C)no1 (stereo unspecified),"inconclusive: 0.562 µM [inhibitor, full curve, poor fit]",–
O=c1c2ccccc2nnn1CSc1nnc(-c2cccs2)n1Cc1ccccc1,"inconclusive: 3.26 µM [inhibitor, full curve]",–
CCOc1ccc(C2/C(=C(\O)c3ccc4c(c3)OCCO4)C(=O)C(=O)N2CCCN2CCOCC2)cc1 (stereo unspecified),"inconclusive: 2 µM [activator, full curve, poor fit]",–
CCOC(=O)CSc1ncc(OC)c(=O)[nH]1,inactive,–
Cc1cccc(CCNC(=O)C2CCC(=O)N(Cc3ccc(Cl)cc3)C2)n1 (stereo unspecified),"inconclusive: 1.12 µM [inhibitor, partial curve, poor fit]",–
COc1ccccc1-n1cnc2cc(C(=O)NC3CCCC3)ccc21,inactive,–
Cc1ccccc1Cn1c(C(C)O)nc2ccccc21 (stereo unspecified),"inconclusive: 1.26 µM [activator, single point]",–
C=CCOc1ccc2c(c1)c(S(=O)(=O)c1ccc(C)cc1)cn2COC,"inconclusive: 25.9 µM [inhibitor, single point]",–
CC1CCc2c(sc(NC(=O)CCCOc3ccc(C(C)(C)C)cc3)c2C(N)=O)C1 (stereo unspecified),inactive,–
CC1CC(C)CN(c2nc(NCc3ccco3)nc(N)c2[N+](=O)[O-])C1 (stereo unspecified),"inconclusive: 35.5 µM [inhibitor, single point]",–
CC(C)CC1c2[nH]c3ccccc3c2CCN1C(=O)c1cnccn1 (stereo unspecified),"inconclusive: 3.98 µM [inhibitor, full curve, poor fit]",–
COc1cc(Br)c(C2CC(=O)Nc3cc(OC)c(OC)c(OC)c32)cc1OC (stereo unspecified),inactive,–
COc1ccc(N(CC(=O)Nc2ccccc2C)S(=O)(=O)c2ccccc2[N+](=O)[O-])c(OC)c1,"inconclusive: 25.1 µM [inhibitor, single point]",–
CCCCN(C)S(=O)(=O)c1cc(-c2nnc3c4ccccc4c(C)nn23)ccc1C,inactive,–

SMILES,Potency,"activity change, negative = inhibition"
Cc1ccc2c(c1)-c1c(ssc1=S)C(C)(C)N2C(=O)CSc1nncn1C,"inconclusive: 35.5 µM [inhibitor, single point]",–
Cc1ccc(-n2nc(-c3cccnc3)cc2C(=O)N2CCOCC2)c(C)c1,"inconclusive: 1.16 µM [activator, single point]",–
CN(CCOc1ccccc1)C(=O)c1ccc(OC2CCN(C(=O)C3CC3)CC2)cc1,"inconclusive: 35.5 µM [inhibitor, single point]",–
O=C(C1CCN(S(=O)(=O)c2ccccc2)CC1)N1CCN(c2ccccc2)CC1,"inconclusive: 14.1 µM [inhibitor, single point]",–
Fc1ccccc1/C=C/c1ccc2ccccc2n1,active: 2.51 µM,–
Cc1csc(NC(=O)CSc2nc3[nH]c(=O)cc(O)c3s2)n1,"inconclusive: 3.98 µM [inhibitor, single point]",–
CCCOc1ccc(C(=O)N/N=C/c2c[nH]c3ccc(Br)cc23)cc1,"inconclusive: 35.5 µM [inhibitor, single point]",–
Cn1c(=O)n(C)c2cc(NS(=O)(=O)c3ccc(Br)cc3)c(NCc3ccccc3)cc21,"inconclusive: 3.55 µM [activator, single point]",–
CCCC(=O)NC(c1ccc2c(c1)OCO2)c1cc(Cl)c2cccnc2c1O (stereo unspecified),"inconclusive: 8.91 µM [inhibitor, partial curve, poor fit]",–
CCOc1ccc(-n2c(=O)c3c(C)c(C)sc3n(CC(=O)c3ccccc3)c2=O)cc1,"inconclusive: 5.62 µM [inhibitor, single point]",–
COc1ccc(-n2c(O)c(/C=C3\C=Nc4ccc(Br)cc43)c(=O)[nH]c2=O)c(OC)c1,"inconclusive: 35.5 µM [inhibitor, single point]",–
Cn1nc(-c2ccc(OCC(=O)Nc3ccccc3)cc2)c2ccccc2c1=O,"inconclusive: 22.4 µM [inhibitor, single point]",–
Cc1ccc(-c2cc(C(=O)N3CCN(c4ccc(F)cc4)CC3)c3ccccc3n2)o1,"inconclusive: 25.1 µM [inhibitor, single point]",–
COc1cccc([C@H]2Oc3ccc(OC)cc3C(=NOCC[C@@H]3C=C[C@H](OC(C)=O)[C@@H](COC(C)=O)O3)[C@H]2O)c1,"inconclusive: 0.0168 µM [inhibitor, full curve, poor fit]",–
COc1cccc(C2(O)CC(C(F)(F)F)=NN2C(=O)c2ccccn2)c1 (stereo unspecified),"inconclusive: 3.16 µM [activator, single point]",–
O=C(NNS(=O)(=O)c1ccccc1)c1cccc([N+](=O)[O-])c1,"inconclusive: 1.26 µM [inhibitor, single point]",–
COc1ccc(/C=N/NC(N)=S)cc1OC(=O)c1cccc2ccccc12,"inconclusive: 35.5 µM [inhibitor, single point]",–
Cc1c(C(=O)OCC(=O)N2CCCC(C)C2)oc2ccccc12 (stereo unspecified),inactive,–
Cc1nn2c(=O)cc(COC(=O)c3ccccc3NC(=O)c3ccccc3C)nc2s1,inactive,–
Cc1cc(C)n2nc(SCCOc3ccccc3F)nc2n1,inactive,–
O=C(Nc1ccc(/C=C/c2nc3ccccc3o2)cc1)c1ccc(F)cc1,inactive,–
O=C(O)c1cc(S(=O)(=O)Nc2cccc3ccccc23)c(Cl)cc1Cl,–,inconclusive: 23.8% [activator]

SMILES,Potency,"activity change, negative = inhibition"
Cc1nc2ccn(Cc3ccco3)c(=O)c2cc1C(=O)N1CCN(c2ccccc2F)CC1,inactive,–
CCOC(=O)C1CCCN(CC(=O)Nc2c(C(=O)OC)[nH]c3ccc(Br)cc23)C1 (stereo unspecified),"inconclusive: 10 µM [inhibitor, partial curve, poor fit]",–
CCc1cccc2c(C(=O)CSc3nncn3C)c[nH]c12,"inconclusive: 28.2 µM [activator, partial curve, poor fit]",–
N#Cc1nc(/C=C/c2ccccc2)oc1NCCCN1CCOCC1,"inconclusive: 12.6 µM [activator, single point]",–
COc1ccc2c(c1)c1c(c(=O)n(Cc3ccccc3)c(=O)n1Cc1cc(C)ccc1C)n2C,"inconclusive: 3.98 µM [activator, full curve, poor fit]",–
Cc1ccc(CNC(=O)CCSCc2ccc(C)cc2)cc1,"inconclusive: 35.5 µM [inhibitor, single point]",–
CCOc1cc(C2NC(=S)NC(C)=C2C(=O)Nc2ccccc2)ccc1O (stereo unspecified),"inconclusive: 3.16 µM [inhibitor, partial curve, poor fit]",–
Cc1nc(C(C)N(C)Cc2nc(-c3ccc4c(c3)OCO4)no2)c(C)s1 (stereo unspecified),inactive,–
Cn1c(=O)n(Cc2ccc(Br)cc2)c2ccccc21,"inconclusive: 10 µM [inhibitor, partial curve, poor fit]",–
O=C(c1ccc(N2CCN(C(=O)c3ccccc3Br)CC2)cc1)c1cccc(F)c1,"inconclusive: 25.1 µM [inhibitor, single point]",–
CCOC(=O)c1c(C)[nH]c(C)c1S(=O)(=O)N1CCC(C(=O)NCc2ccccc2)CC1,inactive,–
N=c1n(Cc2ccc(Cl)cc2)c2ccccc2n1CC(O)COc1ccccc1 (stereo unspecified),"inconclusive: 35.5 µM [inhibitor, single point]",–
CCOC(=O)c1[nH]c(=O)[nH]c1COC(=O)c1cc2ccccc2o1,inactive,–
Cc1ccc(CN2CCCn3nc(C(=O)NCCN(C)C)cc3C2=O)cc1,"inconclusive: 3.16 µM [inhibitor, single point]",–
CCc1cccc(CC)c1NC(=O)c1cc(S(=O)(=O)N2CCc3ccccc32)cn1C,inactive,–
CCOC(=O)c1ccccc1NC(=O)c1cn(-c2ccc(C)c(C)c2)c(=O)c2ccccc12,"inconclusive: 17.8 µM [inhibitor, single point]",–
O=[N+]([O-])c1ccccc1/C=N/Nc1nccnc1Cl,"inconclusive: 4.61 µM [activator, full curve, poor fit]",–
CSc1ccccc1C(=O)C1CCCN(C(=O)c2ccc(N3CCOCC3)cc2)C1 (stereo unspecified),inactive,–
COc1ccc(CC(=O)Nc2c(C(=O)Nc3ccccc3F)oc3ccccc23)cc1,inactive,–
COc1ccc(CC2(c3ccccc3)NC(=O)NC2=O)cc1 (stereo unspecified),"inconclusive: 11.2 µM [inhibitor, partial curve, poor fit]",–
COc1ccc(NC(=O)CC2C(=O)N(c3ccc(C)cc3)C(=O)N2CCc2ccccc2)cc1 (stereo unspecified),"inconclusive: 7.08 µM [inhibitor, partial curve, poor fit]",–
CCc1ccc(CN2CCN(C(=O)c3cccc(OC)c3OC)CC2)cc1,"inconclusive: 6.31 µM [inhibitor, single point]",–

# Sorted by formula weight (smallest number first): part of the list above.
SMILES,Potency,"activity change, negative = inhibition"
CCc1cccc2c(C(=O)CSc3nncn3C)c[nH]c12,"inconclusive: 28.2 µM [activator, partial curve, poor fit]",–
Cc1ccc(CNC(=O)CCSCc2ccc(C)cc2)cc1,"inconclusive: 35.5 µM [inhibitor, single point]",–
CCOc1cc(C2NC(=S)NC(C)=C2C(=O)Nc2ccccc2)ccc1O (stereo unspecified),"inconclusive: 3.16 µM [inhibitor, partial curve, poor fit]",–
